Assay results: article doi:10.1101/181776
These are yes or no findings as the source states them, for the method shown. Binding seen in cells or lysates may run through a third protein.

Chains of the proteins cited; added tags and fusions are not shown. Lines headed by an entry give the natural chain unless they say otherwise; changes in a name come on top.
UniProt O60573: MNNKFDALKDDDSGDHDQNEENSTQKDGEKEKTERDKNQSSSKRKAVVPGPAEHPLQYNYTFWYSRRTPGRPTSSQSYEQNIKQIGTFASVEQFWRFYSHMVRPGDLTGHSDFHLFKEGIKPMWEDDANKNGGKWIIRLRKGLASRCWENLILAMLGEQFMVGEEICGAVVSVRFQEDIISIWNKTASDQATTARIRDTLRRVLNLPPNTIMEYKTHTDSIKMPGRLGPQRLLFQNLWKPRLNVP
UniProt Q6Y7W6: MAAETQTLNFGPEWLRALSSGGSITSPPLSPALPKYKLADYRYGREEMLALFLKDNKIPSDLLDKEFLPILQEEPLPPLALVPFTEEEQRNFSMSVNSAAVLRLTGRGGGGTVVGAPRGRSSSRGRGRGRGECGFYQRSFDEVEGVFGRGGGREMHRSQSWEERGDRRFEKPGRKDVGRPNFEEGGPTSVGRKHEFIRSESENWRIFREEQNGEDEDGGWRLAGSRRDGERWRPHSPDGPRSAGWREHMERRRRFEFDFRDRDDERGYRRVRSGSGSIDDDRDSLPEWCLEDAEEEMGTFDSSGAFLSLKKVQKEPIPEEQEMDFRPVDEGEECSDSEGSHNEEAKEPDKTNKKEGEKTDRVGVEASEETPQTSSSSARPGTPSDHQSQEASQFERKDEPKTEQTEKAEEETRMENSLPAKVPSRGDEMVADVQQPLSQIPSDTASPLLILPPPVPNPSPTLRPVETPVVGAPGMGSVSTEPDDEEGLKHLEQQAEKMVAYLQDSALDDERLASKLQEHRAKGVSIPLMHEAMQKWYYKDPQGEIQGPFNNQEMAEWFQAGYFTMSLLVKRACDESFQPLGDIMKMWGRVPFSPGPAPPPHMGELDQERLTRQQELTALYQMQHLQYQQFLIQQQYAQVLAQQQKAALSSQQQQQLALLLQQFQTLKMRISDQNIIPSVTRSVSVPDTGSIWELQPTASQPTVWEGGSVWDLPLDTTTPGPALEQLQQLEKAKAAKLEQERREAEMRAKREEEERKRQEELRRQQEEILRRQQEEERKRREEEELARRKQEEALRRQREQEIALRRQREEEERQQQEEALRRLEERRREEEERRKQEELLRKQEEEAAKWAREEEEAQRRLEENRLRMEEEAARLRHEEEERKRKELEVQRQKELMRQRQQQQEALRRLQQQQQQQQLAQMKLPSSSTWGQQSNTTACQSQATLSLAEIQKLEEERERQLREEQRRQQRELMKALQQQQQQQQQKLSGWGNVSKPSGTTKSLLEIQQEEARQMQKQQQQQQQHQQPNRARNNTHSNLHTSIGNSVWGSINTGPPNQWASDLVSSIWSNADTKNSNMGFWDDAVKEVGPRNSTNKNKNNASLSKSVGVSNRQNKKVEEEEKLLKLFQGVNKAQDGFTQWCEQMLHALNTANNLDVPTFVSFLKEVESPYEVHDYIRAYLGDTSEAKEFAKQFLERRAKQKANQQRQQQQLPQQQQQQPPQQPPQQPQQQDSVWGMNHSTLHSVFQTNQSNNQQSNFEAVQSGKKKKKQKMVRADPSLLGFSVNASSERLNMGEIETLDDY

Target: FLAG-tagged m4EHP (human (cDNA from HeLa 11ht RNA)) (UniProt O60573)
Experiment: co-IP

binding: no binding
Substance: HA-tagged mut GIGYF2 (full-length GIGYF2 variant with a disrupted m4EHP-binding site) (from UniProt Q6Y7W6)
